# Results taken from PubChem BioAssay AID1487 (National Center for Advancing Translational Sciences (NCATS), 2009).
# The list shows a part of the results. The main result of the screen is listed elsewhere. These columns were measured beside it and carry no call. Most of these compounds were active or inconclusive in the main read-out, so they are no random draw. Potencies come from curve fits of mixed quality, noted in brackets.
# Assay: qHTS Assay for Modulators of Lamin A Splicing
# Conditions: HeLa LMNA splicing GFP/RFP minigene ratio, 48 h
# In short: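 S3 HeLa cells stably expressing lamin A-EGFP splicing minigene plus DsRed2, 600 cells/well, 48 h compound exposure at 37C. Laser-scanning cytometry; analysed as GFP (500-530 nm)/RFP (575-640 nm) total intensity ratio; 0.5% DMSO vehicle.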
# [1] = measured here: GFP splicing reporter channel
# [2] = measured here: RFP viability control channel
compound,measurement,setting,value
Cc1ccc(SCc2nc(N)nc(Nc3ccccc3C)n2)c(C)c1,AC50,[1],"7.94 µM [rising, partial curve]"
same,AC50,[2],"12.6 µM [rising, partial curve]"
CC(=O)c1cc(-c2ccc(F)cc2)n(CC(=O)NC2CCCCCC2)c1C,AC50,[2],"10 µM [falling, partial curve]"
COC(=O)C1=C(C)OC(N)=C(C#N)C1c1c(C)nn(C)c1C (centres undefined),AC50,[2],"0.0891 µM [falling, full curve]"
O=C(Nc1nc2c(s1)COc1ccccc1-2)c1cccs1,AC50,[1],"15.8 µM [rising, partial curve, poor fit]"
same,AC50,[2],"14.1 µM [rising, single point]"
COc1ccc(/C=N/N2CCOCC2)cc1OCc1ccccc1,AC50,[1],"0.0708 µM [falling, full curve, poor fit]"
same,AC50,[2],"0.158 µM [falling, partial curve, poor fit]"
CCn1c(SCC(=O)N/N=C/c2cc(OC)c(O)c(OC)c2)nc2ccccc21,AC50,[2],"2.82 µM [falling, partial curve, poor fit]"
Cc1c(C(=O)OC(C)C)sc(N)c1C(=O)OC(C)C,AC50,[2],"31.6 µM [rising, single point]"
Cc1cc(Nc2ccc(C)c(C)c2)n2nc(C)nc2n1,AC50,[1],"5.62 µM [falling, partial curve, poor fit]"
same,AC50,[2],"5.62 µM [falling, partial curve, poor fit]"
CCOc1ccc(C2=Nc3ccc(Br)cc3C(c3ccc(N4CCOCC4)cc3)=NN2)cc1,AC50,[2],"1.78 µM [rising, full curve]"
Cn1c(=O)c(=O)n(C)c2cc(S(=O)(=O)NCc3ccc(Cl)cc3)ccc21,AC50,[1],"0.0141 µM [rising, full curve, poor fit]"
O=C(Nc1nc(-c2ccccc2)cs1)C1CCCN(S(=O)(=O)c2cccc([N+](=O)[O-])c2)C1 (centres undefined),AC50,[2],"11.2 µM [rising, single point]"
N=C(N)SCc1nc2ccccn2c1Br,AC50,[1],"31.6 µM [rising, single point]"
CCOC(=O)N1CCN(C(=O)c2ccc3c(=O)n(Cc4ccc(OC)cc4)c(=S)[nH]c3c2)CC1,AC50,[2],"15.8 µM [rising, partial curve]"
Cc1ccc2[nH]c(O)c(N=NC(=O)C(C)n3cnc4ccccc4c3=O)c2c1 (centres undefined),AC50,[2],"17.8 µM [rising, single point]"
CCC(C)NC(=O)C1CCN(S(=O)(=O)c2ccc(OC)cc2)CC1 (centres undefined),AC50,[1],"5.01 µM [rising, single point]"
CCOC(=O)c1c(C)[nH]c(C(=O)COC(=O)CNC(=O)c2ccccc2Cl)c1C,AC50,[1],"11.2 µM [falling, partial curve]"
O=C(CN1CCCN(Cc2ccc(F)cc2Cl)C1=O)NC1CCCCCC1,AC50,[1],"11.2 µM [rising, partial curve, poor fit]"
same,AC50,[2],"15.8 µM [rising, single point]"
CCCNC(=S)N1CCC(C(=O)c2ccc(OC)cc2)CC1,AC50,[2],"11.2 µM [rising, partial curve]"
O=S(=O)(NCc1ccccc1)c1ccc(Cl)c(S(=O)(=O)NCc2ccccc2)c1,AC50,[2],"20 µM [rising, single point]"
CCOc1ccc(N2C(=O)CC(Sc3nc(C)cc(C)n3)C2=O)cc1 (centres undefined),AC50,[1],"35.5 µM [falling, single point]"
CCc1nn2cc(C(=O)c3cc(Cl)ccc3O)cnc2c1-c1ccc(F)cc1,AC50,[2],"22.4 µM [rising, single point]"
Cc1ccc(S(=O)(=O)Cn2nnnc2C(c2ccc(F)cc2)N2CCCCC2)cc1 (centres undefined),AC50,[1],"17.8 µM [rising, partial curve, poor fit]"
same,AC50,[2],"15.8 µM [rising, single point]"
CCCNC(=S)N1CCC(C(=O)c2ccc3c(c2)OCCO3)CC1,AC50,[1],"7.94 µM [rising, partial curve]"
Oc1ccc(-c2nc3ccccc3s2)cc1,AC50,[2],"0.0447 µM [falling, partial curve, poor fit]"
O=c1c2ccccc2nc(-c2ccco2)n1-c1nc2ccccc2s1,AC50,[2],"15.8 µM [rising, partial curve]"
COCCN(CCOC)Cc1c(C)[nH]c2ccccc2c1=O,AC50,[1],"22.4 µM [rising, single point]"
Clc1ccc2c(NCc3ccco3)ncnc2c1,AC50,[1],"10 µM [rising, partial curve]"
same,AC50,[2],"12.6 µM [rising, partial curve]"
Cn1nc(C(F)(F)F)c(-c2ccccc2)c1NC(=O)c1ccco1,AC50,[1],"0.0251 µM [rising, full curve, poor fit]"
O=C(Nc1nccs1)C1CCN(S(=O)(=O)c2c(Cl)cccc2Cl)CC1,AC50,[2],"14.1 µM [rising, single point]"
O=C(NCc1ccc(Cl)cc1Cl)C1CCN(S(=O)(=O)c2ccc3c(c2)OCCCO3)CC1,AC50,[2],"31.6 µM [rising, single point]"
Cc1ccccc1-n1nnnc1Sc1nnnn1-c1ccccc1,AC50,[1],"7.08 µM [falling, single point]"
same,AC50,[2],"31.6 µM [falling, single point]"
Nc1[nH]c(=O)ncc1F,AC50,[1],"0.000794 µM [falling, full curve, poor fit]"
same,AC50,[2],"0.000794 µM [falling, full curve, poor fit]"
Cc1ccc(S(=O)(=O)Nc2ccc(=O)n(Cc3ccc(Cl)c(Cl)c3)c2)cc1,AC50,[1],"35.5 µM [falling, single point]"
same,AC50,[2],"35.5 µM [falling, partial curve, poor fit]"
CCCNS(=O)(=O)c1ccc(Oc2ncc(C(F)(F)F)cc2Cl)cc1,AC50,[2],"20 µM [rising, single point]"
CCOc1ccccc1NC(=O)c1cc2ccc3cccnc3c2[nH]1,AC50,[1],"0.00126 µM [falling, full curve, poor fit]"
same,AC50,[2],"0.2 µM [falling, full curve, poor fit]"
CN(C)S(=O)(=O)c1ccc(N=Cc2c(C(F)(F)F)[nH][nH]c2=O)cc1,AC50,[1],"0.112 µM [falling, partial curve]"
same,AC50,[2],"8.91 µM [falling, partial curve, poor fit]"
O=C(COC(=O)c1ccc2c(c1)OCCO2)NCCC1=CCCCC1,AC50,[2],"0.0126 µM [falling, full curve, poor fit]"
CCOc1ccc(-c2cc(CCCC(=O)NCc3cccnc3)no2)cc1,AC50,[1],"0.0224 µM [falling, full curve, poor fit]"
O=C(/C=C/c1ccccc1[N+](=O)[O-])c1ccc(F)cc1,AC50,[1],"4.47 µM [falling, partial curve]"
same,AC50,[2],"6.31 µM [falling, partial curve]"
CN1/C(=C\C(=O)COc2ccc3c(c2)OCO3)C(C)(C)c2ccccc21,AC50,[2],"22.4 µM [rising, single point]"
Cc1cccc(S(=O)(=O)Nc2ccc(C)c3c2OC(C)(C)C3)c1,AC50,[1],"22.4 µM [rising, single point]"
same,AC50,[2],"22.4 µM [rising, single point]"
COc1ccc(-c2nnc(NC(=O)c3cc(Cl)ccc3Cl)o2)cc1,AC50,[2],"5.01 µM [rising, partial curve, poor fit]"
Cc1nn(C)c2c1c(-c1ccccc1)cc(=O)n2Cc1c(F)cccc1Cl,AC50,[2],"35.5 µM [rising, single point]"
Cc1cc(=O)oc2cc(OCC(=O)OCC(=O)N(CCC#N)c3ccccc3)ccc12,AC50,[1],"3.16 µM [rising, partial curve]"
COc1cc(C(=O)Nc2ccc(N(C)C)cc2)cc(OC)c1OC,AC50,[2],"35.5 µM [rising, single point]"
COc1ccccc1N(Cc1ccccc1)S(=O)(=O)c1cccc(C(=O)Nc2ccc(C(C)=O)cc2)c1,AC50,[1],"0.355 µM [rising, full curve, poor fit]"
O=C(COc1ccc(S(=O)(=O)N2CCCC2)cc1Cl)N1CCN(c2ccccc2)CC1,AC50,[2],"31.6 µM [rising, single point]"
COc1ccc(CCN2C(=O)c3cccc4c(C(=O)N5CCCCC5)ccc(c34)C2=O)cc1OC,AC50,[2],"0.00891 µM [rising, full curve, poor fit]"
COc1ccc(/C=C\C(=O)c2c(O)ccc3c(C)cc(=O)oc23)cc1OC,AC50,[1],"22.4 µM [falling, single point]"
same,AC50,[2],"35.5 µM [falling, single point]"
CCOC(=O)c1ccc(-c2cc(C)no2)[nH]1,AC50,[2],"0.00631 µM [falling, full curve, poor fit]"
O=C1CC(c2ccccc2Cl)CC(O)=C1C=Nc1ccccc1 (centres undefined),AC50,[1],"10 µM [rising, partial curve]"
same,AC50,[2],"11.2 µM [rising, partial curve]"
COc1ccccc1Cn1c(=O)c2ccccc2n2c(Sc3ncnc4sccc34)nnc12,AC50,[1],"5.01 µM [falling, partial curve]"
same,AC50,[2],"3.55 µM [falling, partial curve]"
Cc1cccc(/C(N)=N/OC(=O)C23CC4CC(CC(C4)C2)C3)c1,AC50,[2],"0.0251 µM [falling, full curve, poor fit]"
COc1ccc(-c2nc(CSCC(=O)N3CCN(c4cccc(C)c4)C(C)C3)c(C)o2)cc1OC (centres undefined),AC50,[2],"17.8 µM [rising, single point]"
CCOC(=O)CNC(c1ccccc1)c1cc(Br)ccc1NC(=O)OCC (centres undefined),AC50,[1],"35.5 µM [rising, single point]"
C/C(=N\NC(=S)NCc1ccccc1)c1ccccc1F,AC50,[2],"14.1 µM [falling, single point]"
Cc1cccc(NC(=O)c2ccc(CN3CCN(Cc4ccccc4)CC3)cc2)c1,AC50,[1],"0.631 µM [falling, full curve]"

# Part of the list above in a different format.
compound | measurement | setting | value
CCCNC(=S)N1CCC(C(=O)c2ccc3c(c2)OCCO3)CC1 | AC50 | [1] | 7.94 µM [rising, partial curve]
Oc1ccc(-c2nc3ccccc3s2)cc1 | AC50 | [2] | 0.0447 µM [falling, partial curve, poor fit]
O=c1c2ccccc2nc(-c2ccco2)n1-c1nc2ccccc2s1 | AC50 | [2] | 15.8 µM [rising, partial curve]
COCCN(CCOC)Cc1c(C)[nH]c2ccccc2c1=O | AC50 | [1] | 22.4 µM [rising, single point]
Clc1ccc2c(NCc3ccco3)ncnc2c1 | AC50 | [1] | 10 µM [rising, partial curve]
same | AC50 | [2] | 12.6 µM [rising, partial curve]
Cn1nc(C(F)(F)F)c(-c2ccccc2)c1NC(=O)c1ccco1 | AC50 | [1] | 0.0251 µM [rising, full curve, poor fit]
O=C(Nc1nccs1)C1CCN(S(=O)(=O)c2c(Cl)cccc2Cl)CC1 | AC50 | [2] | 14.1 µM [rising, single point]
O=C(NCc1ccc(Cl)cc1Cl)C1CCN(S(=O)(=O)c2ccc3c(c2)OCCCO3)CC1 | AC50 | [2] | 31.6 µM [rising, single point]
Cc1ccccc1-n1nnnc1Sc1nnnn1-c1ccccc1 | AC50 | [1] | 7.08 µM [falling, single point]
same | AC50 | [2] | 31.6 µM [falling, single point]
Nc1[nH]c(=O)ncc1F | AC50 | [1] | 0.000794 µM [falling, full curve, poor fit]
same | AC50 | [2] | 0.000794 µM [falling, full curve, poor fit]
Cc1ccc(S(=O)(=O)Nc2ccc(=O)n(Cc3ccc(Cl)c(Cl)c3)c2)cc1 | AC50 | [1] | 35.5 µM [falling, single point]
same | AC50 | [2] | 35.5 µM [falling, partial curve, poor fit]
CCCNS(=O)(=O)c1ccc(Oc2ncc(C(F)(F)F)cc2Cl)cc1 | AC50 | [2] | 20 µM [rising, single point]
CCOc1ccccc1NC(=O)c1cc2ccc3cccnc3c2[nH]1 | AC50 | [1] | 0.00126 µM [falling, full curve, poor fit]
same | AC50 | [2] | 0.2 µM [falling, full curve, poor fit]
CN(C)S(=O)(=O)c1ccc(N=Cc2c(C(F)(F)F)[nH][nH]c2=O)cc1 | AC50 | [1] | 0.112 µM [falling, partial curve]
same | AC50 | [2] | 8.91 µM [falling, partial curve, poor fit]
O=C(COC(=O)c1ccc2c(c1)OCCO2)NCCC1=CCCCC1 | AC50 | [2] | 0.0126 µM [falling, full curve, poor fit]
